Measured values reported in PMC3782497, “Unique Structure and Dynamics of the EphA5 Ligand Binding Domain Mediate Its Binding Specificity as Revealed by X-ray Crystallography, NMR and MD Simulations” (PLoS ONE, 2013).
Results are given in words; binding and its absence hold for the method and conditions named. Some results given as binding are weak or reduced against the parent protein; the word gives no strength. For some of these results: Tags and fused reporters may be left off the sequences shown.

By UniProt entry, the sequences of proteins in these tests, tags left out. Residues count along the entry.
UniProt P54757, residues 27-575: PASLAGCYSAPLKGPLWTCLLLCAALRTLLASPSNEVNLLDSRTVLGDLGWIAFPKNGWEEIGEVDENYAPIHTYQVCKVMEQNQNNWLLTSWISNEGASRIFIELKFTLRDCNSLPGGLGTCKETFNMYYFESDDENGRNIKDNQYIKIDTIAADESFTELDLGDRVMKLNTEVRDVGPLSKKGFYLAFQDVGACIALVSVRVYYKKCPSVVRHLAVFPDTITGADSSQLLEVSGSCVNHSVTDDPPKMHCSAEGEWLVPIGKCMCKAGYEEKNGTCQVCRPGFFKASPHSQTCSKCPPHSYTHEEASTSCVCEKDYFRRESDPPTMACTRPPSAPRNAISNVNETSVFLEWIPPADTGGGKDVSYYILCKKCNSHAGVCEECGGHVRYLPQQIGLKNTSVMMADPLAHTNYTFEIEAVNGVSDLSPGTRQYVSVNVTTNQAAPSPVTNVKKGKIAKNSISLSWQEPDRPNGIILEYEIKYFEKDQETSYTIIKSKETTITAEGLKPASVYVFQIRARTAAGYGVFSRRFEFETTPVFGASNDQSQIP
UniProt P54764, residues 20-547: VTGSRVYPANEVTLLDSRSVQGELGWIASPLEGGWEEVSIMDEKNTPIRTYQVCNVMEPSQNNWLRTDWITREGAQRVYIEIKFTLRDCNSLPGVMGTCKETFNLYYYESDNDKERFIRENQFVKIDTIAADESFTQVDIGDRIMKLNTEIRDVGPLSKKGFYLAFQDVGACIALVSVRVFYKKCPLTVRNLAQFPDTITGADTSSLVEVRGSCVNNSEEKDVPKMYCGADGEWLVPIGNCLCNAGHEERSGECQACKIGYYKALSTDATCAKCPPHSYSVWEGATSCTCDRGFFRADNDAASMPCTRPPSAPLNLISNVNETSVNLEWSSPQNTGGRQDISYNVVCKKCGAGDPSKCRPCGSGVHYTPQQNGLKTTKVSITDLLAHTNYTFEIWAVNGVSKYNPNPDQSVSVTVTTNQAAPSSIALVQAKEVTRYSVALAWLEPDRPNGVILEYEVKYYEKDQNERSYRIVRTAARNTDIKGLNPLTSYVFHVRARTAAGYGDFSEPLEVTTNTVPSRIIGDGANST
UniProt Q15375, residues 28-555: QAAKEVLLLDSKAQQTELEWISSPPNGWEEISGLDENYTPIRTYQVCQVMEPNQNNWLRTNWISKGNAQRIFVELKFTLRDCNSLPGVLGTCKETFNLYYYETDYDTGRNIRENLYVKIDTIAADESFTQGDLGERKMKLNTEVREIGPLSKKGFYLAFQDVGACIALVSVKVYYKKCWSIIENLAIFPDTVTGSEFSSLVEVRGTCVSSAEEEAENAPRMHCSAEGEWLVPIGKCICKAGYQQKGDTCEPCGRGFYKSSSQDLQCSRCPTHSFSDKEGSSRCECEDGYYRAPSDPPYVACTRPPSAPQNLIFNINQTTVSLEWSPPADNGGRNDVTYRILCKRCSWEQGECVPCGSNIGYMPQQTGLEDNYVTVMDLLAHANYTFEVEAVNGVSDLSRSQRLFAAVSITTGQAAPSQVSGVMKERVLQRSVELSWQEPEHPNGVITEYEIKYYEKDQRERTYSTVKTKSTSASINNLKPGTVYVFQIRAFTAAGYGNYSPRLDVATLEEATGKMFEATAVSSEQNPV
UniProt P29317, residues 24-537: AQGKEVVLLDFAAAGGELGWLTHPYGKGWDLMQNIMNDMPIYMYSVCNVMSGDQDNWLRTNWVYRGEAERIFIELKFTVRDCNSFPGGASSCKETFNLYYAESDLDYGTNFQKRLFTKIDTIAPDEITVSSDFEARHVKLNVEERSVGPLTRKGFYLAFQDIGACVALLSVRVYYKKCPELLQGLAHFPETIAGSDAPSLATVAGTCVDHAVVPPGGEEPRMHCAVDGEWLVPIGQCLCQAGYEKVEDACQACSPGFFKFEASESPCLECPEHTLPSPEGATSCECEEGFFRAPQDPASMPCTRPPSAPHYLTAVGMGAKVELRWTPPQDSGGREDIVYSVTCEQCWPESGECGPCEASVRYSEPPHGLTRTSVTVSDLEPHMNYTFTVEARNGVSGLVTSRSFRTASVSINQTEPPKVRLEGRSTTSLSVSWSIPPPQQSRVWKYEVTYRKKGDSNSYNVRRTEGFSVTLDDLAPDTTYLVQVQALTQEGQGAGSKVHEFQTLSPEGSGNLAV

Columns and labels:
rat EphA5 Fc [1] = target: T1, rat EphA5 Fc (rat, UniProt P54757 27-575); experiment: ELISA; rat EphA5 Fc (1 µg/mL) held on Protein A-coated wells; 0.6 nM ephrin-A5 AP for 1 hour, with or without WDC; bound AP detected with pNPP
T1 construct: EphA5, rat, Fc fusion; source: bought: R&D Systems

EphA8 Fc = target: T2, EphA8 Fc (UniProt P29322); experiment: ELISA; Eph receptor Fc (1 µg/mL) held on Protein A-coated wells; 0.6 nM ephrin-A5 AP (EphA receptors) or 0.2 nM ephrin-B2 AP (EphB receptors) for 1 hour, with or without 100 µM WDC; bound AP detected with pNPP
T2 sequence: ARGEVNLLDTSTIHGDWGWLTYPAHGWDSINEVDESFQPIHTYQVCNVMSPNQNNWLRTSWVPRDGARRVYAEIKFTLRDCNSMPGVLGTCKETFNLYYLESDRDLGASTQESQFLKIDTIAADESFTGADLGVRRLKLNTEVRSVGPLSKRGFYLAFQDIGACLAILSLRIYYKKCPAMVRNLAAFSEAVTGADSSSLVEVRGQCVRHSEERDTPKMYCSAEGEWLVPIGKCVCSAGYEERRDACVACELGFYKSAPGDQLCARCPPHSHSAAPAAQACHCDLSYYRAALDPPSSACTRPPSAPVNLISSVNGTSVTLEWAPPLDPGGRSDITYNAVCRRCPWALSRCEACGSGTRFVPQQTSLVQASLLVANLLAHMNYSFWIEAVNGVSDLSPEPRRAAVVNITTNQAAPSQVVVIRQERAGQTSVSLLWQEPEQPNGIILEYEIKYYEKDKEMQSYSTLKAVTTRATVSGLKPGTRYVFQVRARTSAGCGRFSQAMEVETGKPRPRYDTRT

rat EphA5 Fc [2] = target: T1, rat EphA5 Fc; experiment: as above
EphA4 Fc = EphA4 Fc (UniProt P54764); experiment: as above
EphA7 Fc = EphA7 Fc (UniProt Q15375); experiment: as above
EphA6 Fc = target: T3, EphA6 Fc (UniProt Q9UF33); experiment: as above
T3 sequence: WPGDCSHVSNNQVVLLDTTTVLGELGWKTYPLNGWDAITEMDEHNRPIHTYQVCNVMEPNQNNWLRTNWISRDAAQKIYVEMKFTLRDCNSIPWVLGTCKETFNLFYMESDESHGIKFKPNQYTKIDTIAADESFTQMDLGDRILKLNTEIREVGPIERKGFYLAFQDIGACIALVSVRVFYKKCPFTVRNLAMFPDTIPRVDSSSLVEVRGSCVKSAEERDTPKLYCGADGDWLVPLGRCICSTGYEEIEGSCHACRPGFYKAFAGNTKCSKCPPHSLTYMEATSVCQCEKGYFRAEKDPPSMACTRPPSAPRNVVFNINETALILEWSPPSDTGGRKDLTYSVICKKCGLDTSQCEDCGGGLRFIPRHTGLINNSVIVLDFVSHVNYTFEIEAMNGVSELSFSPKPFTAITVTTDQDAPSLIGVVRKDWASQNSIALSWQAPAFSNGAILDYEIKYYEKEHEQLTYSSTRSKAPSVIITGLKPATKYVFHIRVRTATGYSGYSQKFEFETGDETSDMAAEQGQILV

EphA2 Fc = EphA2 Fc (UniProt P29317); experiment: as above

binding (rat EphA5 Fc [1]): binds
binding (EphA8 Fc): binds
binding (rat EphA5 Fc [2]): binds
binding (EphA4 Fc): binds
binding (EphA7 Fc): binds
binding (EphA6 Fc): binds
binding (EphA2 Fc): binds
B1: ephrin-A5 alkaline phosphatase (AP) (ligand, UniProt P52803 21-203)
chain: QDPGSKAVADRYAVYWNSSNPRFQRGDYHIDVCINDYLDVFCPHYEDSVPEDKTERYVLYMVNFDGYSACDHTSKGFKRWECNRPHSPNGPLKFSEKFQLFTPFSLGFEFRPGREYFYISSAIPDNGRRSCLKLKVFVRPTNSCMKTIGVHDRVFDVNDKVENSLEPADDTVHESAEPSRGEN
